According to patent US6589750B2, “Therapeutic use of the SMR1 protein, the SMR1 maturation products, specifically the QHNPR pentapeptide as well as its biologically active derivatives” (Institut Pasteur, priority 1997, dated 2003):
Some entries share one result that the patent states for a list of compounds.

System: anti-pentapeptide serum
Assay: Competitive radioimmunoassay (RIA) with anti-pentapeptide serum
Type: binding, rabbit
Details: liquid phase RIA

Row | Compound | cross-reactivity of the antiserum | amount giving 50% displacement of 125I-labelled pentapeptide
1 | NC(=O)[C@@H]1CCCN1C(=O)[C@H](Cc1cnc[nH]1)NC(=O)[C@@H]1CCC(=O)N1 [thyrotropin-releasing hormone, Glp-His-Pro] | less than 0.01% | 
2 | (Glp1)-His-Asn-Pro-Arg [[Glp^1] pentapeptide, pyroglutamyl form of the pentapeptide] |  | no more than 570 fmol
3 | QHNP | less than 0.01% | 
